# Results are given in words; binding and its absence hold for the method and conditions named.
# Protein sequences, listed by entry. Tags and fused reporters are not part of them. Lines headed by an entry give the natural chain unless they say otherwise; changes in a name come on top. Chains listed by the source or under a name are the forms on record and can include a tag or linker.
# AnxA2 Δ32 (AnxA2 lacking the N-terminal 32 amino acids; core domain only) (P07355, form named): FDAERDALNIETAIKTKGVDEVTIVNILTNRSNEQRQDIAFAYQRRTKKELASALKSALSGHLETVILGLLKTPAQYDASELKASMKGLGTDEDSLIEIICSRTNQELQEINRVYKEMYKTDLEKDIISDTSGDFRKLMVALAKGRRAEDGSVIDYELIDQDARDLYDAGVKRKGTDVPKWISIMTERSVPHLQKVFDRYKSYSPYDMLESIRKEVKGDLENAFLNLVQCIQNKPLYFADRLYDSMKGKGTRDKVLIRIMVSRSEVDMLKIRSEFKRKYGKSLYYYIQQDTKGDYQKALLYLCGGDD
# AnxA2 Δ14 (AnxA2 lacking the N-terminal 14 amino acids) (P07355, form named): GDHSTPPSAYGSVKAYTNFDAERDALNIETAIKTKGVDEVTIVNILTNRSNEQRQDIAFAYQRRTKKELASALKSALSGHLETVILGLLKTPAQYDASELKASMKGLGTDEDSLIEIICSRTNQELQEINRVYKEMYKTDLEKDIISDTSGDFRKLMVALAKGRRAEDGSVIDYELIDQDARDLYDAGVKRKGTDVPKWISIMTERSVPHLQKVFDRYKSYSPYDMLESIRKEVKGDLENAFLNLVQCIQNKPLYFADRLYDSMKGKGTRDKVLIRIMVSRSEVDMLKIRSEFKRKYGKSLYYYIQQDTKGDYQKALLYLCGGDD
# Columns and labels:
# [1] = target: AnxA2 Δ32 (AnxA2 lacking the N-terminal 32 amino acids; core domain only) (human) (UniProt P07355); assay: SDS-PAGE under non-reducing conditions; purified AnxA2 derivatives kept under oxidizing (non-reducing) conditions (WT: oxidation state after 1 and 5 weeks); disulfide-linked dimer against monomer; both purified
# [2] = target: AnxA2 Δ14 (AnxA2 lacking the N-terminal 14 amino acids) (human) (UniProt P07355); assay: as above
Substance,binding [1],binding [2]
AnxA2 Δ32 (AnxA2 lacking the N-terminal 32 amino acids; core domain only) (from UniProt P07355 33-339) (domain or fragment),no binding,–
AnxA2 Δ14 (AnxA2 lacking the N-terminal 14 amino acids) (from UniProt P07355 15-339) (domain or fragment),–,no binding

# Source: article PMC6168566
